Values from PubChem BioAssay AID1259254 (NCATS, 2017)

- Purpose: 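Finding genes that stop cells copying their DNA twice in one cycle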 (primary screen)
- System: human HCT116 colorectal cancer cells
- Knock-down reagent: single siRNA against human genes
- Timing: 3 days
- Read-out: 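Imaged Hoechst DNA stain sorts each cell into a cycle phase by DNA amount; per plate, G2 fraction set to 0% for non-targeting and 100% for GMNN siRNA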
- Scale: G2 robust z-score and G2 cells, % of GMNN control: higher = more G2 cells, more excess DNA replication; raw share of cells in G2: higher = larger share of cells with G2 DNA content
- Hit rule: 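An siRNA counts as active if its G2 robust z-score lies at least 5 MADs above the screen median; here such calls match roughly 38% of GMNN control or more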
This is an unselected part of about 59,000 reagents. Of all reagents, about 1,550 (2.6%) were called active. 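G2 share is only a proxy for re-replication; each gene was hit by three separate siRNAs, and active genes were retested.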 Raw values are not corrected between plates. Not stated in the record: the amount of reagent.

Target gene	PubChem SID	G2 robust z-score	G2 cells, % of GMNN control	raw share of cells in G2 (%)	outcome
PDE3A	SID160713980	1.16	11.1	8.4	inactive
PDE3A	SID160713981	0.119	3.8	4.64	inactive
PDE3A	SID160713982	2.46	20.3	10.4	inactive
CIMAP1C	SID160759872	-0.397	0.171	3.66	inactive
CIMAP1C	SID160759873	-0.803	-2.68	2.06	inactive
CIMAP1C	SID160759874	0.251	4.73	4.26	inactive
ZNF763	SID160763303	-1.07	-4.59	1.51	inactive
ZNF763	SID160763304	1.74	15.2	8.44	inactive
ZNF763	SID160763305	-0.794	-2.62	2.61	inactive
ESPNP	SID160725019	-0.734	-2.2	2.19	inactive
ESPNP	SID160725020	-0.228	1.36	3.68	inactive
ESPNP	SID160763427	2.03	17.3	9.93	inactive
POLE	SID160714598	0.139	3.95	6.34	inactive
POLE	SID160714599	-1.19	-5.42	2.61	inactive
POLE	SID160714600	3.06	24.5	12.3	inactive
OR11H6	SID160756012	-0.674	-1.78	3.38	inactive
OR11H6	SID160756013	-0.939	-3.64	2.25	inactive
OR11H6	SID160756014	-0.657	-1.66	1.33	inactive
FCF1	SID160739989	3.19	25.4	13.6	inactive
FCF1	SID160739990	-0.583	-1.14	4.12	inactive
FCF1	SID160739992	2.86	23.1	10.5	inactive
HMOX1	SID160723864	2.28	19	11.2	inactive
HMOX1	SID160731067	-1.6	-8.26	2.54	inactive
HMOX1	SID160775075	0.677	7.73	7.85	inactive
CMPK2	SID160756880	-0.341	0.571	4.39	inactive
CMPK2	SID160756881	5.3	40.3	15.9	active
CMPK2	SID160756882	-0.496	-0.524	2.39	inactive
JPH2	SID160724487	1.79	15.6	10.5	inactive
JPH2	SID160724488	-0.217	1.44	5.15	inactive
JPH2	SID160724489	-0.787	-2.57	2.22	inactive
FAM53C	SID160733498	1.34	12.4	7.28	inactive
FAM53C	SID160740564	-1.28	-6.05	1.44	inactive
FAM53C	SID160740566	-0.571	-1.05	3.83	inactive
OPN1MW	SID160770163	0.063	3.41	7.06	inactive
OPN1MW	SID160770174	-0.107	2.21	5.29	inactive
OPN1MW	SID160770183	-1.15	-5.09	1.71	inactive
PEX11G	SID160754406	1.15	11.1	8.79	inactive
PEX11G	SID160754407	1.66	14.6	7.59	inactive
PEX11G	SID160754408	3.04	24.4	10.6	inactive
FHIP1B	SID160751660	-0.999	-4.06	2.76	inactive
FHIP1B	SID160751661	-0.462	-0.284	3.37	inactive
FHIP1B	SID160751662	-0.359	0.44	2.54	inactive
BRD7	SID160733032	0.194	4.33	4.62	inactive
BRD7	SID160739105	0.0633	3.41	5.16	inactive
BRD7	SID160739106	-0.131	2.05	5.32	inactive
NIBAN2	SID160748082	-0.751	-2.31	3.57	inactive
NIBAN2	SID160748083	0.212	4.46	6.61	inactive
NIBAN2	SID160748084	2.93	23.6	8.92	inactive
TMEM184A	SID160761081	1.03	10.2	7.28	inactive
TMEM184A	SID160761082	0.693	7.85	5.82	inactive
TMEM184A	SID160761084	-0.438	-0.118	3.16	inactive
RBKS	SID160747407	0.941	9.59	8.57	inactive
RBKS	SID160747408	-0.997	-4.05	3.72	inactive
RBKS	SID160747409	1.17	11.2	7.27	inactive
MRC2	SID160723386	3.8	29.7	14.8	inactive
MRC2	SID160723387	-1.26	-5.87	3.06	inactive
MRC2	SID160723389	-0.779	-2.52	2.88	inactive
IGFL1	SID160765347	0.206	4.42	5.5	inactive
IGFL1	SID160765348	2.2	18.4	11.3	inactive
IGFL1	SID160765349	-0.587	-1.16	3.72	inactive
DDX51	SID160763931	-0.139	1.99	5.74	inactive
DDX51	SID160763932	-0.358	0.45	4.45	inactive
DDX51	SID160763933	8.15	60.3	32	active
DSTN	SID160729792	-0.299	0.865	5.32	inactive
DSTN	SID160729793	0.205	4.41	5.96	inactive
DSTN	SID160732311	-0.00321	2.94	4.28	inactive
EEFSEC	SID160747170	1.06	10.5	8.02	inactive
EEFSEC	SID160747171	2.14	18	10.7	inactive
EEFSEC	SID160747172	0.635	7.43	8.72	inactive

Reagents listed above with an active call (2):
Target gene	PubChem SID	G2 robust z-score	G2 cells, % of GMNN control	raw share of cells in G2 (%)	outcome
CMPK2	SID160756881	5.3	40.3	15.9	active
DDX51	SID160763933	8.15	60.3	32	active
